36 targets from the supplement of paper PMC12819154, “High-throughput peptide-centric local stability assay extends protein–ligand identification to membrane proteins, tissues and bacteria” (Nature Structural & Molecular Biology, 2025) can be followed below.

Amino acid sequences for entries named in this document (tags omitted). A change or cut given only in a name is not applied to a line headed by its entry.
UniProt P34059: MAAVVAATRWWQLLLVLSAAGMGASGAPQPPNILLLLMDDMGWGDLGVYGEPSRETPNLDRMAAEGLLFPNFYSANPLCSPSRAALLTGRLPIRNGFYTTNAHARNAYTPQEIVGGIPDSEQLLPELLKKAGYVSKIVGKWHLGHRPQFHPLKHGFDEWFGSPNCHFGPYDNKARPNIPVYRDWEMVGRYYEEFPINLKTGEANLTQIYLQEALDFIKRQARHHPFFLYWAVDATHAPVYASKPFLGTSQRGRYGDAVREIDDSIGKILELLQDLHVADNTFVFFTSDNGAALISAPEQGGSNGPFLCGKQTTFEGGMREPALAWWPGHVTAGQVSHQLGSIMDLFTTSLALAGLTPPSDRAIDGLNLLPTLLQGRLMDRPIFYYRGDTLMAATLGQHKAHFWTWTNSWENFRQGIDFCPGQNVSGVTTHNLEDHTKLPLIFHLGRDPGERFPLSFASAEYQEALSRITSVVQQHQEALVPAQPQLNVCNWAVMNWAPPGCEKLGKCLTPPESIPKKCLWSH
UniProt P41252: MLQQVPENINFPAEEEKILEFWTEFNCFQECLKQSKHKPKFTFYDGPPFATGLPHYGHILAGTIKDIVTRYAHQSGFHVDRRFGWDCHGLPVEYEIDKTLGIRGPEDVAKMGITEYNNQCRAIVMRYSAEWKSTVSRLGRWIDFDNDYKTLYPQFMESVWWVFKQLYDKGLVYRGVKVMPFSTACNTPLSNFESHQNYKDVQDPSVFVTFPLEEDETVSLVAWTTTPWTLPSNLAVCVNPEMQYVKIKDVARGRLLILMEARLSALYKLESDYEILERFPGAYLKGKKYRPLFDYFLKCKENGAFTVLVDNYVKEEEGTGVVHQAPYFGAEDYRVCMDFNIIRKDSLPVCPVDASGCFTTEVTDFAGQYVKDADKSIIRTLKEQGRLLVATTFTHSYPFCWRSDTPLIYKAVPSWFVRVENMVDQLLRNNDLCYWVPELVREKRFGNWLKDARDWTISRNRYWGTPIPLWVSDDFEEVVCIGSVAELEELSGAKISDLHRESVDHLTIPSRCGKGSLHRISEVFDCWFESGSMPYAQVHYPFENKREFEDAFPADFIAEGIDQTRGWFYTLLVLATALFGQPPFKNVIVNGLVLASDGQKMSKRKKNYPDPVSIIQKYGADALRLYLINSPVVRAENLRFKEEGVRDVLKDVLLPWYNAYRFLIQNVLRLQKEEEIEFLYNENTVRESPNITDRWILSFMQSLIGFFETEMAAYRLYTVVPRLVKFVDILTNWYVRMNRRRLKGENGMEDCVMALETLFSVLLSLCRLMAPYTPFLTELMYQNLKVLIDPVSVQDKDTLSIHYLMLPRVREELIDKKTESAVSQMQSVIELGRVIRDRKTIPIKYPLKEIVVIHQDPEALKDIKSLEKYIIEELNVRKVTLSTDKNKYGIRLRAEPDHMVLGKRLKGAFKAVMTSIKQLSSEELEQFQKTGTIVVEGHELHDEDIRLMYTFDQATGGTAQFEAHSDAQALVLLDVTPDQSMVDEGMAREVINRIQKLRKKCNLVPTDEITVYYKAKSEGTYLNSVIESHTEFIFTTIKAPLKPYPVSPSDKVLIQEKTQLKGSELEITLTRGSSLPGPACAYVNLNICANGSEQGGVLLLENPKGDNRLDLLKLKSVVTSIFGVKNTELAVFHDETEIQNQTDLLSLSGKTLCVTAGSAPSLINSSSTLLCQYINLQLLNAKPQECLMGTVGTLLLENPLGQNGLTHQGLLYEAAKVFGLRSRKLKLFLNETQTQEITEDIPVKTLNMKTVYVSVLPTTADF
UniProt P41002: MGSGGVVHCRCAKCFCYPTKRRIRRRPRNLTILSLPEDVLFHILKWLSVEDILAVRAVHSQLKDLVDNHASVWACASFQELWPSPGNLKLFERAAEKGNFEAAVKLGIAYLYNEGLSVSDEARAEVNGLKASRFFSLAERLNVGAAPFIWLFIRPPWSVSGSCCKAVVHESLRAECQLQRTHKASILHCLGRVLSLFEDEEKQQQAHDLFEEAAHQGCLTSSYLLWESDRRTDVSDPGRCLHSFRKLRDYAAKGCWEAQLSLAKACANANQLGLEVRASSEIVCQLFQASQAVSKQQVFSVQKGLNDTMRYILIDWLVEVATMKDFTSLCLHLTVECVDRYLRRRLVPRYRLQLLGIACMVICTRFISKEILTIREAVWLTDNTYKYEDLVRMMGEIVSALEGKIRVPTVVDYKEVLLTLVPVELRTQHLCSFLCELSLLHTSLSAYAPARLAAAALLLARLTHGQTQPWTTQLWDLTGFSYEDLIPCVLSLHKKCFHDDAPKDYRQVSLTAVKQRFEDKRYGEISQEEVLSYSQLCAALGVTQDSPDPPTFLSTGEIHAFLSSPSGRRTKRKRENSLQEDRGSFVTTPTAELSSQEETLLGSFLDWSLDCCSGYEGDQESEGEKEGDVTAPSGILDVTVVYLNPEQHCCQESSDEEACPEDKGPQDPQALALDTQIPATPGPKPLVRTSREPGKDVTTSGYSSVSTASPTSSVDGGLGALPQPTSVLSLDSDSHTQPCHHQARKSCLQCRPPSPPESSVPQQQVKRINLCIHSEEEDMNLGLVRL
UniProt P45974: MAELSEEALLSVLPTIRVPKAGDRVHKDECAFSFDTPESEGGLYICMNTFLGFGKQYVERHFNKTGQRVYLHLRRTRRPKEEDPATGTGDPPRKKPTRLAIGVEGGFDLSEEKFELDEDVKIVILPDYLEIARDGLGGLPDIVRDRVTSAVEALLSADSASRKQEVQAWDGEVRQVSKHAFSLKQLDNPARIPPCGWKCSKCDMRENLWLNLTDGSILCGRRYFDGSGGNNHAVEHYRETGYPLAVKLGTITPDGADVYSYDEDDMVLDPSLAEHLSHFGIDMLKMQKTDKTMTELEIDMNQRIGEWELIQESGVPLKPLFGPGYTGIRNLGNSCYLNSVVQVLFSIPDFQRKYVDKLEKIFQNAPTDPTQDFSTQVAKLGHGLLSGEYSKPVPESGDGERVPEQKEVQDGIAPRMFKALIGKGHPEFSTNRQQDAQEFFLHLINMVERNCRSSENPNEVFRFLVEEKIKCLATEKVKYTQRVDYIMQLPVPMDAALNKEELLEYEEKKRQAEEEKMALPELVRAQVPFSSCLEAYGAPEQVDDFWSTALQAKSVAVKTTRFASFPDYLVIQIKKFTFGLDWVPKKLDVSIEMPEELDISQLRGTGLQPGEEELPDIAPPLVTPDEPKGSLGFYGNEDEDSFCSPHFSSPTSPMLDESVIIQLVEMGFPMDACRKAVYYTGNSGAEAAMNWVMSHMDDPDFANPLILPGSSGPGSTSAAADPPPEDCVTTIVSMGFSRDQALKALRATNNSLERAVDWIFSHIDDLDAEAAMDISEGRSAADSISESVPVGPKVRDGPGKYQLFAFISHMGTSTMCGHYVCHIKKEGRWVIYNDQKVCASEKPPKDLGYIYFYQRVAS
UniProt P45973, whole entry: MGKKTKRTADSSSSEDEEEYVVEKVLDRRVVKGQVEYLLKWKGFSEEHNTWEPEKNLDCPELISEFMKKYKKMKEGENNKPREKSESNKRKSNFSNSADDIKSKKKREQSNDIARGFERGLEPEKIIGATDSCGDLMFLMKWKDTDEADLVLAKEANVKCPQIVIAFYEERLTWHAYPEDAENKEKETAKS
UniProt P43357, whole entry: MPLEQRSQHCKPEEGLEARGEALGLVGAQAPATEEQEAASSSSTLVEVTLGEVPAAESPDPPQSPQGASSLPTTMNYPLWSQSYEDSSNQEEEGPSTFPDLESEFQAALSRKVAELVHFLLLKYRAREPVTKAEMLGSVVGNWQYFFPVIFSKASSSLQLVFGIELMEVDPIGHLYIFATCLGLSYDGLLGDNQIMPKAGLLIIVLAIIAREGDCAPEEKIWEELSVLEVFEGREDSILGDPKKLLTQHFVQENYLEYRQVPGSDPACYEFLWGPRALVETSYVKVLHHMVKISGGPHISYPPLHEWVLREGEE
UniProt P43121, whole entry: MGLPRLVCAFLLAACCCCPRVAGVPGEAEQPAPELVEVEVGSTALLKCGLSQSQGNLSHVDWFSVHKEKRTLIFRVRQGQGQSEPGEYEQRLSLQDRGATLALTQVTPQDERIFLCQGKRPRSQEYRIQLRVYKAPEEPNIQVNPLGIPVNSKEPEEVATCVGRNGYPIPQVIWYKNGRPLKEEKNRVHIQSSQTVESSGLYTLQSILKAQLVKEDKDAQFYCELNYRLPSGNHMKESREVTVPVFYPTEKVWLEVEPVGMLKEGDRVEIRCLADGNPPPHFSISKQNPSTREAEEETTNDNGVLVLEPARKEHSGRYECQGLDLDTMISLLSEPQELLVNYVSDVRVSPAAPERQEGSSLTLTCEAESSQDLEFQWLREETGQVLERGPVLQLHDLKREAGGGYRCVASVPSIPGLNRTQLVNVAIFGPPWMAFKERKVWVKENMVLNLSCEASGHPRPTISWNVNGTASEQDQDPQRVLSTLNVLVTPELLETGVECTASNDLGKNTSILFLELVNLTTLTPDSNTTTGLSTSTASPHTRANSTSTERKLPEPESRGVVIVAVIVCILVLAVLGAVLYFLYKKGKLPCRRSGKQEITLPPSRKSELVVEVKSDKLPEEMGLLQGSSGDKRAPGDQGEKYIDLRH
UniProt P42226: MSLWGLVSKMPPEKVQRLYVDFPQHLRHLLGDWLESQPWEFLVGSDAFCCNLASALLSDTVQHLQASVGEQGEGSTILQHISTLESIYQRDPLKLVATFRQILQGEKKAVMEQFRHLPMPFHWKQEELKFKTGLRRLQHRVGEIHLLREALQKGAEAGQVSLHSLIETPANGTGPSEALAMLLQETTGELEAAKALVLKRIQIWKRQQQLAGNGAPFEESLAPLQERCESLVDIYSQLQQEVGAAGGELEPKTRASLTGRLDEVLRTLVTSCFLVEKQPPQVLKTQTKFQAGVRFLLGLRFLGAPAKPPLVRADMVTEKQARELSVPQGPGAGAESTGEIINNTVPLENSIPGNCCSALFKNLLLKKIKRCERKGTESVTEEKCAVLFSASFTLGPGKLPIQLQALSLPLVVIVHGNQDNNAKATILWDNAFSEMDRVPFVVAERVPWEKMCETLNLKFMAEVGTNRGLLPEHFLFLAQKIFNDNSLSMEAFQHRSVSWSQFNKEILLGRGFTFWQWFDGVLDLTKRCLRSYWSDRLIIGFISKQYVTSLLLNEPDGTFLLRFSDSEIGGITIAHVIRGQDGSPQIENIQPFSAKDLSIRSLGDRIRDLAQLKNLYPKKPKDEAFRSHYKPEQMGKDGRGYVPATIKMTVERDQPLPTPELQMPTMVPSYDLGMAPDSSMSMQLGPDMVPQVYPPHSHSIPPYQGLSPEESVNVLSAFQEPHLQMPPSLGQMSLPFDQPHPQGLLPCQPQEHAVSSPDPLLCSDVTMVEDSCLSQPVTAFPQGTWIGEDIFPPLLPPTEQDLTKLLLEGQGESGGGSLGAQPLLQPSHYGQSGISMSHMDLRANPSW
UniProt P35244: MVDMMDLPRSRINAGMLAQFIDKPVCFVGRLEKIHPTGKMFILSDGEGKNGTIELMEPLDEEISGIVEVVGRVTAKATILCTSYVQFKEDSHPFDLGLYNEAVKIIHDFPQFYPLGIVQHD
UniProt P33240: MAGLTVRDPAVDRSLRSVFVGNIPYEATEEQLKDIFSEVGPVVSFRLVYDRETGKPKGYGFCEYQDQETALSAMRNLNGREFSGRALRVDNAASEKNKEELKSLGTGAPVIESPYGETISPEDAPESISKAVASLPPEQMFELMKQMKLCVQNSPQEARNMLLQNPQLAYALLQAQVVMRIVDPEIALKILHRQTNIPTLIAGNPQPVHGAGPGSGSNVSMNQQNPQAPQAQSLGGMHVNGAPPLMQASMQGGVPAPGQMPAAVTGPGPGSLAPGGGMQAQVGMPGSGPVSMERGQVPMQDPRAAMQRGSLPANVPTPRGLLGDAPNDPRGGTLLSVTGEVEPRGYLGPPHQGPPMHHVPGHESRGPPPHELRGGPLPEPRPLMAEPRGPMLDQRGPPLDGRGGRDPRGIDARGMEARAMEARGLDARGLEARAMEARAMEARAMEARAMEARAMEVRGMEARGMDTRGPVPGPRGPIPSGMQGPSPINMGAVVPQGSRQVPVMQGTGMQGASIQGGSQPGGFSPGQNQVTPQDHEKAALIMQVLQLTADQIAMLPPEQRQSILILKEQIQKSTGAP
UniProt P41236: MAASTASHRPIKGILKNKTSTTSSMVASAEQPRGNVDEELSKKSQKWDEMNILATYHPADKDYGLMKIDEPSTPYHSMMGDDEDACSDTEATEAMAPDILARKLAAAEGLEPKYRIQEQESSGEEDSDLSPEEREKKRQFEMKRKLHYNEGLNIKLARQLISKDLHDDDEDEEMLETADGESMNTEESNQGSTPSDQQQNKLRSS

The other results are listed elsewhere or left out. Most entries show no effect beyond the scatter of the controls.

Compound in the experiment: Cc1nc(Nc2ncc(C(=O)Nc3c(C)cccc3Cl)s2)cc(N2CCN(CCO)CC2)n1 [dasatinib]
Nature of the experiment: log2 fold change of tryptic peptide abundance, ligand vs vehicle (limited proteolysis) (log2 ratio); higher = more trypsin-susceptible (destabilized). As to conditions: ligand concentration: 5 uM; sample: K562 cleared lysate.
Consider “GALNS (peptide sequence: NGFYTTNAHAR, peptide start residue: 95) (UniProt P34059)”, for which the log2 fold change is -0.199.

On to “IARS (peptide sequence: TGTIVVEGHELHDEDIR, peptide start residue: 930) (UniProt P41252)”, for which the log2 fold change is -0.153.

In the case of “UniProt P41002 (peptide sequence: LAAAALLLAR, peptide start residue: 452)”, the log2 fold change amounted to 0.14.

As to “PSMC4 (peptide sequence: ADTLDPALLRPGR, peptide start residue: 314) (UniProt P43686)”, the log2 fold change was -0.0523.

“PAFAH1B1 (peptide sequence: SNGYEEAYSVFKK, peptide start residue: 21) (UniProt P43034)”: the log2 fold change is -0.505.

As to “GRK6 (peptide sequence: FHIYHMGQAGFPEAR, peptide start residue: 273) (UniProt P43250)”, the log2 fold change is -0.244.

On to “MARCKS (peptide sequence: GEAAAERPGEAAVASSPSK, peptide start residue: 12) (UniProt P29966)”, for which the log2 fold change was determined as 0.115.

In the case of “USP5 (peptide sequence: VCASEKPPK, peptide start residue: 837) (UniProt P45974)”, the log2 fold change stood at 0.826.

For the target “CBX5 (peptide sequence: WKGFSEEHNTWEPEK, peptide start residue: 41) (UniProt P45973)”, the log2 fold change is -0.465.

In the case of “MAGEA3 (peptide sequence: SQHCKPEEGLEAR, peptide start residue: 7) (UniProt P43357)”, the log2 fold change was 0.0998.

On to “ETV3 (peptide sequence: IKVEPASEKDPESLR, peptide start residue: 380) (UniProt P41162)”, for which the log2 fold change was -0.144.

On to “UniProt P45984 (peptide sequence: EVMDWEER, peptide start residue: 359)”, for which the log2 fold change is 0.181.

For “RPL35 (peptide sequence: VLTVINQTQKENLRK, peptide start residue: 57) (UniProt P42766)”, the log2 fold change is -0.103.

As for “ERP29 (peptide sequence: FDTQYPYGEK, peptide start residue: 60) (UniProt P30040)”, the log2 fold change is -0.756.

For the target “MPG (peptide sequence: VGVGHAGEWAR, peptide start residue: 262) (UniProt P29372)”, the log2 fold change is -0.24.

Consider “SHC1 (peptide sequence: TRVEGGQLGGEEWTR, peptide start residue: 122) (UniProt P29353)”, for which the log2 fold change was -0.0617.

For “MCAM (peptide sequence: SDKLPEEMGLLQGSSGDKR, peptide start residue: 614) (UniProt P43121)”, the log2 fold change was determined as 0.503.

Turning to “TMPO (peptide sequence: THQALGILSK, peptide start residue: 611) (UniProt P42166)”, the log2 fold change is -0.0743.

Consider “ZEB1 (peptide sequence: VAVDGNVIR, peptide start residue: 418) (UniProt P37275)”, for which the log2 fold change came out at 0.259.

Take “HSPA9 (peptide sequence: YAEEDRR, peptide start residue: 568) (UniProt P38646)”: the log2 fold change was found to be 0.226.

“STAT1 (peptide sequence: QDWEHAANDVSFATIR, peptide start residue: 41) (UniProt P42224)”: the log2 fold change worked out at 0.102.

For the target “ARL3 (peptide sequence: ILLLGLDNAGK, peptide start residue: 20) (UniProt P36405)”, the log2 fold change was 0.0685.

As to “STAT6 (peptide sequence: AVMEQFR, peptide start residue: 109) (UniProt P42226)”, the log2 fold change was -0.218.

In the case of “RPA3 (peptide sequence: EDSHPFDLGLYNEAVK, peptide start residue: 89) (UniProt P35244)”, the log2 fold change was -0.0297.

In the case of “GPD2 (peptide sequence: LVGAIVYYDGQHNDAR, peptide start residue: 212) (UniProt P43304)”, the log2 fold change is -0.509.

In the case of “AKT2 (peptide sequence: LPFYNQDHER, peptide start residue: 348) (UniProt P31751)”, the log2 fold change worked out at 0.403.

As to “HADHA (peptide sequence: CLAPMMSEVIR, peptide start residue: 550) (UniProt P40939)”, the log2 fold change is -0.104.

“GTF2E1 (peptide sequence: MRVETAADGK, peptide start residue: 76) (UniProt P29083)”: the log2 fold change amounted to 0.17.

On to “ETFB (peptide sequence: EIDGGLETLR, peptide start residue: 165) (UniProt P38117)”, for which the log2 fold change was -0.0871.

“AKR1C3 (peptide sequence: SKALEVTK, peptide start residue: 32) (UniProt P42330)”: the log2 fold change is 0.751.

Regarding “ID1 (peptide sequence: CLSEQSVAISR, peptide start residue: 34) (UniProt P41134)”, the log2 fold change was determined as 0.15.

In the case of “CSTF2 (peptide sequence: AGLTVRDPAVDR, peptide start residue: 2) (UniProt P33240)”, the log2 fold change was -0.0974.

Regarding “PPP1R2 (peptide sequence: GNVDEELSKK, peptide start residue: 34) (UniProt P41236)”, the log2 fold change is 0.0418.

Take “CHKA (peptide sequence: LYGIFPQGR, peptide start residue: 196) (UniProt P35790)”: the log2 fold change was 0.321.

Regarding “RPL13A (peptide sequence: MNTNPSRGPYHFR, peptide start residue: 62) (UniProt P40429)”, the log2 fold change is -0.09.

For “USP8 (peptide sequence: SYSSPDITQAIQEEEKR, peptide start residue: 716) (UniProt P40818)”, the log2 fold change worked out at 0.412.
